The source of these data is article PMC6683576.

Sequences of proteins named here, by UniProt entry; tags and fusion partners are left off.
UniProt P11142: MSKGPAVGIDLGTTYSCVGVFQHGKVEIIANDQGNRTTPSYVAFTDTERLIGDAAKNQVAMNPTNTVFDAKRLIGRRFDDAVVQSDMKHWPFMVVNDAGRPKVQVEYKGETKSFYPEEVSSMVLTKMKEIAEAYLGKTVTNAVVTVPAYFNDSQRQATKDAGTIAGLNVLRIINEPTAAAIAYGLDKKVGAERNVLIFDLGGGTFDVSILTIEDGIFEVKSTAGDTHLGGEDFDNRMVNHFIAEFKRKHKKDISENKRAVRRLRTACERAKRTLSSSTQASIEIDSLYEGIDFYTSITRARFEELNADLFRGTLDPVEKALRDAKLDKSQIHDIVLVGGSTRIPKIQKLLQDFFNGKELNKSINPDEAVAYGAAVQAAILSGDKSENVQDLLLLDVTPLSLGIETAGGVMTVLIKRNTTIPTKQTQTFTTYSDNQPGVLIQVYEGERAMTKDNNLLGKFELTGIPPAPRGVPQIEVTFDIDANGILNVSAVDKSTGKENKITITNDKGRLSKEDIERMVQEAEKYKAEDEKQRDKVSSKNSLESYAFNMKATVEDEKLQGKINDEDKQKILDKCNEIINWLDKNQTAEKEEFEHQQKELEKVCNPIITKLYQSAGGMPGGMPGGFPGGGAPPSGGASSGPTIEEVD

Results are given in words; binding and its absence hold for the method and conditions named. In cells and extracts the contact can be indirect. These calls come from enrichment with a bait or labelling near it, and not all partners need be listed. Where a sequence is shown, tags or fusion partners need not be part of it.

The test addresses T1, GKN2 (myc-tagged) (human) (UniProt Q86XP6).
T1 sequence: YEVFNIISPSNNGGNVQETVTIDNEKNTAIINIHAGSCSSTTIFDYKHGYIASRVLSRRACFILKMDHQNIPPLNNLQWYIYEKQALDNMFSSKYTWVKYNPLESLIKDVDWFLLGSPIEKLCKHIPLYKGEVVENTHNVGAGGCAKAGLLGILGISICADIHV
Put plainly: affinity purification with mass spectrometry; anti-myc antibody on Protein-G-Agarose beads, lysates of GKN2-overexpressing and control cells, overnight; SDS-PAGE, band excision, in-gel digestion, LC-MS/MS.

As to Hsc70 (from UniProt P11142 1-646), the binding entry is “binds”.
